Laboratory results reported in US20110207784A1, “OXADIAZOLE-2-OXIDES AS ANTISCHISTOSOMAL AGENTS” (THE UNITED STATES OF AMERICA, AS REPRESENTED BY THE …, priority 2008, published 2011).

Protein sequences, listed by entry. Tags and fused reporters are not part of them. Residues count along the entry.
UniProt Q962Y6, 1-598: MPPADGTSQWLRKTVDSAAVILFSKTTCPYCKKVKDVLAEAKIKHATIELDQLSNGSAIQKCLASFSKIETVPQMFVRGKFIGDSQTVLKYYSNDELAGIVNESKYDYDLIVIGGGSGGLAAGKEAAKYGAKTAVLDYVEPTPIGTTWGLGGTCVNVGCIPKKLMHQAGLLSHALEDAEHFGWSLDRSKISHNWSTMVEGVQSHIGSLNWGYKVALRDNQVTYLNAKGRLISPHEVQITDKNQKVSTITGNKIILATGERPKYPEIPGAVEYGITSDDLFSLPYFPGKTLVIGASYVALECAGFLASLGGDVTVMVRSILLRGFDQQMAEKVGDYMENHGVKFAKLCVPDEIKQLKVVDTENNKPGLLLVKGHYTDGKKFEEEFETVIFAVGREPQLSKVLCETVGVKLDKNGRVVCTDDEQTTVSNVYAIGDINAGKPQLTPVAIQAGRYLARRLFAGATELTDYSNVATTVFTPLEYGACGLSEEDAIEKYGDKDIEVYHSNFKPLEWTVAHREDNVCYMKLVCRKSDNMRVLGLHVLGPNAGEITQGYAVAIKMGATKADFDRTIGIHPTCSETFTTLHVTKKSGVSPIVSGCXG

Target: Recombinant thioredoxin glutathione reductase (TGR) (Schistosoma mansoni, UniProt Q962Y6)
Type: biochemical, S. mansoni

N#Cc1c(-c2csc(-c3no[n+]([O-])c3C#N)c2)no[n+]1[O-] [Compound 54, 4,4′-(thiophen-2,4-diyl)bis(3-cyano-1,2,5-oxadiazole 2-oxide)]
IC50: 350 nM
